From PubChem BioAssay AID493014 (National Center for Advancing Translational Sciences (NCATS), 2011)
The list shows a part of the results. Shown are side measurements of this screen, not its main read-out; they come without a call. Most of these compounds were active or inconclusive in the main read-out, so they are no random draw. Words in brackets tell the shape of the fitted curve; partial curves, single points and poor fits give uncertain potencies.

Assay: qHTS Assay to Find Inhibitors of Chronic Active B-Cell Receptor Signaling
Conditions: ABC-DLBCL IkBa-CBG/CBR reporter, luminescence ratio (green luciferase fused to IkBa over red control in TMD8 lymphoma cells), 4 h
Method in brief: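 TMD8 ABC-DLBCL cells carrying doxycycline-inducible green luciferase fused to IkappaBalpha plus unfused red luciferase were exposed to compounds (up to 46 uM) for 4 hrs at 37C. Activity came from the overlap-corrected green/red luminescence ratio.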

[1] = measured here: CBR red luminescence, cell number
[2] = measured here: IkBa-CBG green luminescence

Compound | AC50 [1] | AC50 [2]
COc1ccc(/C(N)=N/OC(=O)Cc2ccc(C)cc2)cc1 | 16.4 µM [rising, partial curve, poor fit] | 
O=C(COC(=O)CNC(=O)c1ccccc1F)NCCNC(=O)COC(=O)CNC(=O)c1ccccc1F | 3.66 µM [rising, full curve, poor fit] | 
N/C(CC1CC1(Cl)Cl)=N\OC(=O)c1ccccc1 (configuration not stated) | 10 µM [rising, partial curve] | 
O=C(CSc1ncnc2c1cnn2CCc1ccccc1)Nc1cccc(C(F)(F)F)c1 | 20.6 µM [falling, single point] | 
COc1ccc(-c2nnc3ccc(SCC(=O)N4CCCCC4)nn23)cc1OC | 29.1 µM [rising, single point] | 
O=C(OCc1ccc(F)cc1)c1cc2ccccc2cc1O | 5.01 µM [rising, partial curve] | 
CC(C)(C)c1cc(C(=O)C[n+]2ccc(C(=O)NCCCO)cc2)cc(C(C)(C)C)c1O | 22.4 µM [rising, single point] | 
O=S(=O)(Cc1cc(N2CCOCC2)nc(-c2ccccn2)n1)c1ccccc1 | 17.8 µM [falling, partial curve, poor fit] | 
COc1cccc(OC)c1NC(=O)CN1CCN(C)CC1 | 14.1 µM [rising, single point] | 
Cc1cc(C)n(-c2ccc(NC(=O)C3CCCCN3C(=O)c3cc(C)oc3C)cc2)n1 (configuration not stated) | 0.708 µM [falling, full curve, poor fit] | 
C#Cc1ccc([C@@H]2C=C(C(=O)NCc3ccccc3)O[C@H](OCC)[C@H]2CCCO)cc1 | 31.6 µM [falling, single point] | 
COc1ccc(-c2nnc(NC(=O)c3ccccc3C)o2)cc1 | 8.91 µM [falling, partial curve, poor fit] | 35.5 µM [falling, single point]
CCN(CC)c1nc2c(c(=O)[nH]c(=O)n2C)n1CCOc1ccccc1 |  | 5.01 µM [falling, partial curve, poor fit]
CC(C)[C@H](NS(=O)(=O)c1ccc2c(c1)OCCO2)C(=O)OCC(=O)Nc1cc(Cl)ccc1Cl | 29.1 µM [falling, single point] | 
O=C(NC1CCN(S(=O)(=O)c2cccc(Cl)c2)CC1)C1CCCCC1 | 14.1 µM [rising, single point] | 
CCCCCOc1ccc(NS(C)(=O)=O)cc1 | 5.62 µM [rising, single point] | 
CC(C)(C)NC(=O)NC(=O)CN1CCN(S(=O)(=O)c2ccccc2)CC1 | 22.4 µM [falling, single point] | 
O=C(Nn1cnc2ccccc2c1=O)c1ccc(Cl)c([N+](=O)[O-])c1 | 5.62 µM [rising, single point] | 
CC(C)OC(=O)c1ccc(N2C(=O)C3CC=CCC3C2=O)cc1 (configuration not stated) | 0.517 µM [rising, full curve, poor fit] | 
C#CCSc1nc2sc3c(c2c(=O)n1C)CCC3 | 35.5 µM [rising, single point] | 
CC(=O)Nc1cccc(/C(C)=N/NC(=O)c2ccc(O)cc2)c1 | 2.82 µM [falling, full curve] | 
NNc1ncnc2c1cnn2-c1ccccc1 | 18.4 µM [falling, partial curve] | 

Retrieved one by one from the entries so far:
Compound | AC50 [1] | AC50 [2]
O=C(NC1CCN(S(=O)(=O)c2cccc(Cl)c2)CC1)C1CCCCC1 | 14.1 µM [rising, single point] | 
CCN(CC)c1nc2c(c(=O)[nH]c(=O)n2C)n1CCOc1ccccc1 |  | 5.01 µM [falling, partial curve, poor fit]
COc1ccc(-c2nnc(NC(=O)c3ccccc3C)o2)cc1 | 8.91 µM [falling, partial curve, poor fit] | 35.5 µM [falling, single point]
Cc1cc(C)n(-c2ccc(NC(=O)C3CCCCN3C(=O)c3cc(C)oc3C)cc2)n1 (configuration not stated) | 0.708 µM [falling, full curve, poor fit] | 

(cont.)

Compound | AC50 [1] | AC50 [2]
Cc1ccc(NC(=O)c2ccc3ncsc3c2)cc1S(=O)(=O)N(C)C | 12.6 µM [falling, partial curve, poor fit] | 
Cc1nn(C)c(Cl)c1CN1CCN(CC(C)C)C(CCO)C1 (configuration not stated) | 35.5 µM [falling, single point] | 
COc1ccc(CCNC(=O)CSc2ncc(C(=O)Nc3ccccc3)c(=O)n2C)cc1 | 29.1 µM [rising, single point] | 
CCSc1nnc(NC(=O)CSc2sc3c(O)cc(=O)[nH]c3c2C#N)s1 | 31.6 µM [falling, single point] | 
O=C(NC1=NCCS1)c1cc(-c2cccs2)nc2ccccc12 | 10 µM [falling, partial curve, poor fit] | 15.8 µM [rising, partial curve, poor fit]
O=C(NC(Cc1c[nH]c2ccccc12)C(=O)N/N=C/c1cccc2ccccc12)c1cccs1 (configuration not stated) | 6.51 µM [falling, partial curve] | 
CC(C)c1ccc2oc(-c3ccc(N)cc3)nc2c1 | 5.62 µM [falling, partial curve, poor fit] | 
COc1ccc(OC)c(Cc2nnc(CCC(=O)N3CCCCC3c3nccs3)o2)c1 (configuration not stated) | 35.5 µM [rising, single point] | 
O=C(CSc1ccc2nnc(-c3ccc(Cl)cc3)n2n1)N1CCc2ccccc21 |  | 2.91 µM [rising, partial curve, poor fit]
Cc1cccc(NCc2ccc(Br)cc2)n1 | 14.1 µM [rising, partial curve] | 
COc1ccc(/C=N/Nc2ccc([N+](=O)[O-])cc2)cc1O | 0.794 µM [rising, full curve, poor fit] | 
O=C(Nc1ccccc1)NC1CCCCC1 | 0.58 µM [falling, full curve] | 
O=C(Nc1ccc(Cl)cc1F)C1CC1c1ccccc1 (configuration not stated) | 0.447 µM [rising, full curve, poor fit] | 
O=C(NCCc1ccc(Cl)cc1Cl)c1cc([N+](=O)[O-])c[nH]c1=O | 1.78 µM [falling, full curve, poor fit] | 
OC(c1ccc(Cl)cc1)c1nccc2ccccc12 (configuration not stated) | 12.6 µM [rising, partial curve, poor fit] | 
COc1ccccc1Nc1nc(N(C)c2ccccc2)nc(N)c1[N+](=O)[O-] | 2.51 µM [rising, partial curve] | 
Cc1ncc(CSc2nc3ccccc3[nH]2)c(N)n1 | 0.731 µM [falling, partial curve, poor fit] | 
O=C(O)CN1C(=O)/C(=C/c2ccc(N3CCCCC3)o2)SC1=S | 22.4 µM [rising, partial curve, poor fit] | 
CN(C)C(=O)C[n+]1ccc(C(N)=O)cc1 | 5.62 µM [falling, single point] | 
O=c1c2[nH]c3ccc(F)cc3c2nc2n1CCCS2 | 20 µM [falling, single point] | 
CC1CCCCC12NC(=O)N(CC(=O)N1CCN(S(=O)(=O)Cc3ccccc3)CC1)C2=O (configuration not stated) | 0.517 µM [falling, full curve, poor fit] | 
COc1ccc2sc(NC(=O)NC(=O)c3c(Cl)cccc3Cl)nc2c1 | 35.5 µM [falling, single point] | 

Compound | AC50 [1] | AC50 [2]
Nc1c(Nc2ccccc2)c2ccccc2oc1=O | 18.4 µM [rising, single point] | 
CCN1C(=O)C2(C(C#N)=C(N)Oc3c2c(C)nn3-c2ccccc2)c2ccccc21 (configuration not stated) | 1.78 µM [falling, partial curve] | 
CN(C)c1nc2ncn(Cc3ccccc3)c2c(=O)[nH]1 | 3.55 µM [rising, partial curve, poor fit] | 
CCc1nc2sc(C(C)=O)c(N)c2c2c1CCCC2 |  | 12.6 µM [rising, partial curve, poor fit]
Fc1cc2[nH]cnc2cc1Cl | 5.62 µM [rising, partial curve, poor fit] | 
CC(=O)N1[C@H](C)C=C[C@]1(Cc1ccccc1)C(=O)NCCc1c[nH]c2ccccc12 | 10 µM [falling, partial curve] | 
O=C(CNC(=O)c1ccc(-c2ccccc2)cc1)Nc1ccc(S(=O)(=O)Nc2ncccn2)cc1 | 22.4 µM [falling, partial curve, poor fit] | 
CCCCOC(=O)c1ccc(NC(=O)/C=C/c2cccs2)cc1 | 3.66 µM [falling, full curve] | 
COC(=O)[C@H](Cc1ccccc1)NC(=O)NCc1ccc(S(N)(=O)=O)cc1 | 0.103 µM [falling, full curve, poor fit] | 
Cc1cc(CNC(=O)Cc2c(F)cccc2Cl)nn1C | 1.16 µM [rising, full curve] | 
CCCc1cc(C(=O)OC)c(NC(=O)OCC)s1 | 23.1 µM [rising, partial curve, poor fit] | 
C=CCN=C1N[C@@H](c2ccc(Br)cc2)C(C(=O)OC)=C(C)N1Cc1ccccc1 | 7.94 µM [falling, partial curve, poor fit] | 
Cc1cc(C)nc(SCC(=O)N2CCC(C(N)=O)CC2)n1 | 16.4 µM [rising, partial curve] | 
Cc1cc(C(=O)N/N=C2\CCCC(C)C2)n[nH]1 (configuration not stated) | 2.06 µM [falling, partial curve, poor fit] | 
O=c1c2cc(Br)ccc2nc(-c2cccc(Cl)c2)n1O | 5.62 µM [falling, partial curve] | 
CC1(C)CC(=O)C2=C(C1)NC(SCC(=O)Nc1ccccc1)=C(C#N)C2c1ccco1 (configuration not stated) | 25.1 µM [falling, single point] | 
Cc1cc(=O)oc2c3c(cc(OCC(=O)NC(C)C)c12)OC(C)(C)CC3 | 35.5 µM [falling, single point] | 
Cc1cccc2c1cnn2C(=O)Nc1ccc(Br)cc1F | 35.5 µM [falling, single point] | 
COc1ccc(Nc2cc3n(c(=O)n2)CCc2cc(OC)c(OC)cc2-3)c(C)c1 |  | 12.6 µM [falling, partial curve]
COc1ccc(NC(=O)c2cccs2)cc1O | 11.2 µM [falling, partial curve] | 
Cc1nc(-c2ccccc2)sc1-c1nc(-c2cccs2)ncc1S(=O)(=O)c1ccccc1 | 6.31 µM [falling, single point] | 
